# The whole screen tested about 330,000 compounds, of which about 7,700 (2.3%) were called active. Inconclusive results, whose numbers are uncertain, are shown with a selection of clear calls. The call rests on the fitted dose curve; in most records, active means well fitted inhibition curve with a large enough effect; inconclusive means small, poorly fitted or top-dose-only effect, or effect the other way; inactive means flat fitted curve, though single readings scatter. Potencies of inconclusive entries are doubtful fits and often do not repeat.
# Assay: qHTS screen for small molecules that inhibit ELG1-dependent DNA repair in human embryonic kidney (HEK293T) cells expressing luciferase-tagged ELG1; further: nearly all actives have a fitted effect of over 55% in size
# Conditions: HEK293T ELG1-luciferase reporter, luminescence, 16 h, DNA damage induced by 5-fluorouridine; activity change, negative = inhibition: at 46.1 µM (top of the series)
# Procedure, shortened: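 DMSO vehicle served as the neutral condition. Each well held 2,000 cells given 5-fluorouridine plus compound; after 16 hr at 37 °C/5% CO2, ONE-Glo was added and luciferase measured 30 min later.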
# On the % scale 0 is the no-effect control and ±100 the full control effect; potency means the concentration at half of the fitted maximal effect.
SMILES,Potency,"activity change, negative = inhibition"
CC(NC(=O)CCl)c1ccccc1Br (centres undefined),"inconclusive: 23.1 µM [inhibitor, partial curve, poor fit]",–
CNC(=S)Nc1ccc(C)c(NC(=S)NC)c1,–,inactive: 3.19%
O=C(NC(=S)N(Cc1ccccc1)Cc1ccccc1)c1ccccc1F,"inconclusive: 11.2 µM [inhibitor, partial curve, poor fit]",–
CC(C)C(=O)NC(=S)Nc1ccccc1N1CCN(C(=O)c2ccc(Cl)cc2)CC1,"inconclusive: 29.1 µM [inhibitor, single point]",–
CC(C)CN(CC(C)C)C1=N/C(=C\c2ccco2)C(=O)N1c1ccccc1,"inconclusive: 18.4 µM [activator, partial curve, poor fit]",–
CCCCc1ccc(-c2nc(NC(=O)C3C4CCC(O4)C3C(=O)O)sc2C)cc1 (centres undefined),"inconclusive: 13 µM [activator, partial curve]",–
Cc1c(/C=N/Nc2ccc([N+](=O)[O-])cn2)c2ccccc2n1Cc1ccccc1,"inconclusive: 23.1 µM [activator, partial curve]",–
O=C(Oc1c(CN2CCOCC2)cc(Cl)c2cccnc12)c1ccccc1Br,active: 8.2 µM,–
Cc1cccc(-c2noc(CCC(=O)NCc3ccco3)n2)c1,–,inactive: 0%
COc1ccc(C2Nc3ccc4ccccc4c3-c3c2c(=O)oc2ccccc32)cc1 (centres undefined),–,inactive: 0%
CCn1c(SCC(=O)c2c[nH]c3ccccc23)nc2cc(S(=O)(=O)N3CCOCC3)ccc21,"inconclusive: 2.91 µM [activator, partial curve, poor fit]",–
O=C(Nc1ccc2c(c1)OCO2)C1CCN(S(=O)(=O)c2cccc3cccnc23)CC1,–,inactive: -17.2%
CC1=NN(c2ccccc2)C(=O)/C1=C/c1c(O)n(-c2ccc(F)c(Cl)c2)[nH]c1=O,"inconclusive: 20.6 µM [activator, partial curve]",–
CCOC(=O)c1[nH]c(Cc2[nH]c(C(=O)OCC)c(C)c2CCC(=O)OC)c(CCC(=O)OC)c1C,active: 18.4 µM,–
CCOc1ccc2nc(SCc3cccc(C)c3)nc(C)c2c1,"inconclusive: 8.2 µM [activator, partial curve]",–
Nc1nn(-c2ccccc2)c(N)c1N=Nc1ccc2c(c1)OCO2,"inconclusive: 1.3 µM [activator, partial curve]",–
O=C(C1CC1)N1CCC(Oc2cccc(C(=O)N3CCCCC3CCO)c2)CC1 (centres undefined),–,inactive: 3.72%
COc1ccc(N=C(C)C2=C(O)CSC2=O)cc1,"inconclusive: 16.4 µM [activator, single point]",–
COc1ccc(-c2cc(NC(=O)c3cncn3-c3ccccc3)ccc2OC)cc1,"inconclusive: 14.6 µM [inhibitor, partial curve, poor fit]",–
Cc1cccc(Nc2nnc(SCC(=O)NCC3CCCO3)s2)c1C (centres undefined),"inconclusive: 23.1 µM [inhibitor, partial curve, poor fit]",–
O=C(OCc1ccccc1)/C(=C/c1cccc([N+](=O)[O-])c1)NC(=O)c1ccco1,"inconclusive: 16.4 µM [inhibitor, partial curve, poor fit]",–
Cc1ccc(-c2onc3ccc(C4OCCO4)cc23)cc1,"inconclusive: 18.3 µM [activator, partial curve]",–

# Entries of single compounds from above.
# Cc1c(/C=N/Nc2ccc([N+](=O)[O-])cn2)c2ccccc2n1Cc1ccccc1 is listed with Potency: inconclusive: 23.1 µM [activator, partial curve]
# CC1=NN(c2ccccc2)C(=O)/C1=C/c1c(O)n(-c2ccc(F)c(Cl)c2)[nH]c1=O is listed with Potency: inconclusive: 20.6 µM [activator, partial curve]

# Further structures follow:

SMILES,Potency,"activity change, negative = inhibition"
Cc1cccc(C(=O)Nc2ccc(NC(=O)Cc3ccc(Cl)cc3)cc2)c1,"inconclusive: 18.4 µM [activator, single point]",–
Cc1ccc2c(c1)c1nc3ccccc3nc1n2C,"inconclusive: 5.8 µM [activator, full curve]",–
COc1ccc(/C=N/n2nnnc2N)c(OC)c1,–,inactive: 22.2%
CN(Cc1ccccc1)C(=O)c1ccccc1C(=O)OCC(=O)N(Cc1ccccc1)C(C)(C)C,"inconclusive: 5.8 µM [inhibitor, partial curve]",–
Cc1csc(NC(=O)CCCNC(=O)c2ccc(Cl)cc2)n1,"inconclusive: 29.1 µM [activator, single point]",–
COC(=O)c1nc(NNC(=O)c2ccccc2)sc1-c1ccccc1,"inconclusive: 23.1 µM [activator, single point]",–
Cc1cc(C(=O)OCC(=O)c2cccs2)ccc1[N+](=O)[O-],–,inactive: 5.41%
O=C(CSc1ncnc2scc(-c3ccccc3)c12)N1CCN(Cc2ccc3c(c2)OCO3)CC1,"inconclusive: 16.4 µM [inhibitor, partial curve]",–
O=C(NCc1ccco1)c1cnn2c(C(F)(F)F)cc(-c3cccs3)nc12,"inconclusive: 8.2 µM [inhibitor, partial curve]",–
O=C(CCN1C(=O)C2CCCCC2C1=O)N1CCN(S(=O)(=O)c2ccccc2)CC1 (centres undefined),–,inactive: -11.7%
CCCNC(=O)COc1ccc(-c2nn(C)c(=O)c3ccccc23)cc1,–,inactive: -19.8%
CCN1CCN(Cc2ccccc2NC(=O)Nc2ccc(C)cc2)CC1,"inconclusive: 10.3 µM [activator, partial curve]",–
CC(=O)N(C)c1cccc(-c2ccc3nnc(C)n3n2)c1,"inconclusive: 18.3 µM [activator, partial curve]",–
COc1ccc(-c2cc(=O)oc3cc(OCC(=O)NCC(O)c4ccccc4)ccc23)cc1 (centres undefined),–,inactive: -0.932%
C[C@H](O)Cc1cc2ccccc2c(=O)o1,–,inactive: 0%
CCc1ccc2c(CN3CCc4cc(OC)c(OC)cc4C3)cc(=O)oc2c1,"inconclusive: 32.6 µM [inhibitor, single point]",–
COc1cccc(CNC(=O)CN2C(=O)COc3ccc(S(=O)(=O)N4CCOCC4)cc32)c1,–,inactive: 5.64%
CCOC(=O)C1CCN(C(=O)C2CCN(c3nn4c(=O)cc(C)nc4s3)CC2)CC1,–,inactive: 5.2%
Cc1c(F)cccc1NS(=O)(=O)c1ccc(OCCNS(C)(=O)=O)cc1,"inconclusive: 25.9 µM [inhibitor, single point]",–
Cc1ccnc(NC(=O)c2cc3cc(F)ccc3s2)c1,"inconclusive: 2.59 µM [activator, partial curve]",–
CSc1ncccc1C(=O)Nc1nc2ccc(Oc3ccccc3)cc2s1,"inconclusive: 20.6 µM [activator, single point]",–
COC(=O)c1ccc(C(=O)N2CCCC(CNC(=O)c3ccccc3Cl)C2)cc1 (centres undefined),–,inactive: 24.2%
